Measurements reported in PubChem BioAssay AID1508588 (Peter MacCallum Cancer Centre, 2020).
In all, the deposit lists about 18,000 reagents; shown is a random part of them. 790 of all reagents (4.4%) were called active. 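Calls rest on a combination of fold-change classes in drug and vehicle arms, not all shown here.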 Entries without a mark were called inactive.

Test: 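Knock-downs boosting vemurafenib effects on melanoma cell growth or lactate release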 (primary screen)
System: human WM266.4 melanoma cells (BRAF V600 mutant)
Reagents: siRNA pool against human genes, 40 nM
Time to read-out: 96 h from transfection to read-out
Treatment: vemurafenib 300 nM (about IC25), added 48 h after transfection, for 48 h; comparison arm got DMSO vehicle only
Measured: 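Ratios to non-targeting siRNA for cell gain, counted as DAPI nuclei after minus before drug and averaged over two replicates, and for absorbance-read medium lactate per cell; both binned into fold-change classes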
Scale: cell gain with vemurafenib: higher = more cell gain than with non-targeting siRNA; lactate per cell with vemurafenib: higher = more lactate made per cell
Rule for the call: 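a knock-down counts as enhancing when its fold-change classes with vehicle and with vemurafenib, taken together, show a stronger drug effect on cell gain or lactate per cell; exact class pairs not stated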
Calls: active = enhances vemurafenib effect; inactive = no enhancement seen

no.	gene symbol	cell gain with vemurafenib	lactate per cell with vemurafenib
1	HLA-B	0.57	0.58
2	SNAP91	0.86	1.03
3	RBM7	-0.03 (active)	0.82
4	SCO1	0.43	2.54
5	PDRG1	0.53	1.5
6	SPIN2A	0.39	0.43
7	PLA2G12B	0.35	0.81
8	GPR19	0.49 (active)	0.34
9	RBMS2	0.31	1.1
10	ADGRE3	0.59	0.82
11	COMMD6	0.77	0.73
12	PDZD8	0.74	0.66
13	BTLA	0.69	1.02
14	JUP	0.98	0.7
15	USP36	0.24	0.59
16	DLD	0.51	0.98
17	MOSPD1	0.65	0.42
18	ZNF615	0.85	0.32
19	TRAPPC10	1.17	0.64
20	UNC45A	0.26	1.22
21	EDN2	0.36	0.42
22	EFNA3	0.29	0.87
23	IDI1	0.92	0.32
24	MNT	0.31	1.54
25	MYOZ3	0.73	1.18
26	PDPN	0.62	0.72
27	BCO2	0.65	1.52
28	GPBP1L1	0.16	0.89
29	ZNF653	0.78	1.21
30	GABPB2	0.2	0.65
31	TPI1	0.96	0.87
32	SMURF1	0.79	0.54
33	KXD1	0.19	0.02
34	MGP	0.1	0.88
35	UBR4	0.07	0.73
36	NR2C2	0.26	0.52
37	FAM169BP	0.67	0.54
38	TTC39A	0.62	0.9
39	JOSD2	0.56	1.02
40	RSPO1	0.63	1.11
41	CEPT1	0.18	0.6
42	NSUN4	1.32	1.12
43	WDR35	0.42	0.76
44	CNTN6	0.54	1.11
45	FAM120C	0.57	1.26
46	SLC33A2	0.86	0.51
47	C12orf42	1	0.52
48	AGBL5	0.51	1.09
49	GSTM2	0.19	0.62
50	GLRX2	0.61	1.23
51	ILF2	0.28	0.34

Hits, among the entries above:
gene symbol	cell gain with vemurafenib	lactate per cell with vemurafenib
RBM7	-0.03 (active)	0.82
GPR19	0.49 (active)	0.34

Additional reagents follow:
no.	gene symbol	cell gain with vemurafenib	lactate per cell with vemurafenib
52	ARL13B	0.75	0.63
53	AMDHD1	0.91	1.29
54	RBP4	0.24	3
55	PTPN23	0.68	1.52
56	GRXCR1	0.82	0.6
57	TYROBP	0.86	0.64
58	MINDY2	0.92	0.87
59	TSLIG1	0.99	0.8
60	CR1	0.72	1.2
61	DNAJC7	0.98	0.46
62	GFRA2	0.99	0.97
63	IDNK	1.08	0.52
64	EAPP	1.15	0.68
65	XAGE5	0.3	1.34
66	TMEM117	0.74	0.78
67	VLDLR	0.99	0.77
68	SLC35G5	0.82	0.26
69	INTS9	0.58	0.9
70	RFTN2	1.07	0.84
71	B3GNT6	0.46	0.71
72	GOLGA7	1.17	1.22
73	MRPS18C	0.25	0.5
74	CAB39	0.67	1.32
75	NCS1	0.6	0.97
76	GRM2	0.05	0.73
77	TPTE2	1.32 (active)	0.49
78	FBXO41	0.19	0.8
79	NXPH3	0.45	1.16
80	MUC21	0.58	0.86
81	TKT	1.03	1.07
82	RP2	0.93	0.57
83	ZNF793	0.81	1.44
84	EFHD2	0.23	0.77
